{
  "sequences": {"note": "The chains behind the UniProt entries cited, without tags or fusion partners.", "UniProt Q66JW3": "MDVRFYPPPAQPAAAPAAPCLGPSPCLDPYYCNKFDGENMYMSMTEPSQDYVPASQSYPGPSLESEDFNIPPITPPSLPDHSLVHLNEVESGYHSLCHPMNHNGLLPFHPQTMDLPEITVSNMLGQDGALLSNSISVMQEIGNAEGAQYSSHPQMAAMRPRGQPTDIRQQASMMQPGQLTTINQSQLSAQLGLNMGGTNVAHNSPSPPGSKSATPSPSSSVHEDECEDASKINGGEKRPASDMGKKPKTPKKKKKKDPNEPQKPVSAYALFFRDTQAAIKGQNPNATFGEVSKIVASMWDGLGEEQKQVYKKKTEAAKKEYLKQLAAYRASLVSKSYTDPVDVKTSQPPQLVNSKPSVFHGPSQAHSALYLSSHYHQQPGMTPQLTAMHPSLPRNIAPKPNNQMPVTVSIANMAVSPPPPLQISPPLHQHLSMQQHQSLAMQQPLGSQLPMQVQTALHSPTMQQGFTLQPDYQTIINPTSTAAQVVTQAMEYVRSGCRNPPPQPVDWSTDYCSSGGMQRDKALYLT"},
  "source": "paper PMC11176380",
  "key": {"[1]": {"target": "Heat shock protein 90α (mouse (endogenous in spleen CD8+ T cells of C57BL/6J mice)) (UniProt P07901)", "assay": "co-IP; lysates of mouse CD8+ T cells (RIPA buffer, 4 °C; control or STAT1 siRNA transfected, 72 h) incubated with anti-HSP90α, anti-STAT1 or control IgG for 16 h at 4 °C, then Protein A/G beads 2 h; three washes; immunoblot"}, "[2]": {"target": "T1, STAT1 (mouse (endogenous in spleen CD8+ T cells of C57BL/6J mice)) (UniProt P42225)", "T1 sequence": "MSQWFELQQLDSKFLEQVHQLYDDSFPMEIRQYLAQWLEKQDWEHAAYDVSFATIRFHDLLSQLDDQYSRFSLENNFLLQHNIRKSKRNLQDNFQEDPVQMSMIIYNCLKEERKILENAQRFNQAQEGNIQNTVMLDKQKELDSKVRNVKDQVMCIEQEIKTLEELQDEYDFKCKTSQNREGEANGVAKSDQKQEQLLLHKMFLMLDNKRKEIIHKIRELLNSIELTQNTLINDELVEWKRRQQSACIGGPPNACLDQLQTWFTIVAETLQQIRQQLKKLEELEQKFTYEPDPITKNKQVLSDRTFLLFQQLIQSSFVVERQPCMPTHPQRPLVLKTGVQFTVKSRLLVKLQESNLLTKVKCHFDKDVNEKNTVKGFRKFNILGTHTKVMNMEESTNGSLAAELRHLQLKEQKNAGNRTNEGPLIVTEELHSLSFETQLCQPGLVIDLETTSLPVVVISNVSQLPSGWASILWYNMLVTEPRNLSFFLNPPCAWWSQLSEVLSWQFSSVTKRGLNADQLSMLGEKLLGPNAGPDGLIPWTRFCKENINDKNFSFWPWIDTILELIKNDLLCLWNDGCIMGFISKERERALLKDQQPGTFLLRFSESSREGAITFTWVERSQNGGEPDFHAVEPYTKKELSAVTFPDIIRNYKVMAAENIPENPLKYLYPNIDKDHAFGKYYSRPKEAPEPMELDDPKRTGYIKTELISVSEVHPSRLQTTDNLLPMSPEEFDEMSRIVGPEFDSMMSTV", "assay": "co-IP; lysates of mouse CD8+ T cells (RIPA buffer, 4 °C; control or STAT1 siRNA transfected, 72 h) incubated with anti-HSP90α, anti-STAT1 or control IgG for 16 h at 4 °C, then Protein A/G beads 2 h; three washes; immunoblot"}},
  "note": "These are yes or no findings as the source states them, for the method shown. Binding seen in cells or lysates may run through a third protein. Some binding calls cover weakened binding; strength is not graded here.",
  "data": [
    {"substance": "TOX (from UniProt Q66JW3 1-526)", "values": [
      {"measurement": "binding", "setting": "[1]", "result": "binds"},
      {"measurement": "binding", "setting": "[2]", "result": "binds"}
    ]}
  ]
}
